Assay results from the supplement of paper PMC10849652.
The other results are listed elsewhere or left out.

Chains of the proteins cited; added tags and fusions are not shown. Lines headed by an entry give the natural chain unless they say otherwise; changes in a name come on top.
UniProt P22061: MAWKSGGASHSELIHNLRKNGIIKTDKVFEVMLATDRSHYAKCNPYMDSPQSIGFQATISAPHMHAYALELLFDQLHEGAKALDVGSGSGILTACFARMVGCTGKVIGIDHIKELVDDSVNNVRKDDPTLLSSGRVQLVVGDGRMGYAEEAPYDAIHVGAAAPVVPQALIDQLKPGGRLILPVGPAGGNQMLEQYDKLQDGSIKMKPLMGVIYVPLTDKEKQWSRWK
UniProt Q14554: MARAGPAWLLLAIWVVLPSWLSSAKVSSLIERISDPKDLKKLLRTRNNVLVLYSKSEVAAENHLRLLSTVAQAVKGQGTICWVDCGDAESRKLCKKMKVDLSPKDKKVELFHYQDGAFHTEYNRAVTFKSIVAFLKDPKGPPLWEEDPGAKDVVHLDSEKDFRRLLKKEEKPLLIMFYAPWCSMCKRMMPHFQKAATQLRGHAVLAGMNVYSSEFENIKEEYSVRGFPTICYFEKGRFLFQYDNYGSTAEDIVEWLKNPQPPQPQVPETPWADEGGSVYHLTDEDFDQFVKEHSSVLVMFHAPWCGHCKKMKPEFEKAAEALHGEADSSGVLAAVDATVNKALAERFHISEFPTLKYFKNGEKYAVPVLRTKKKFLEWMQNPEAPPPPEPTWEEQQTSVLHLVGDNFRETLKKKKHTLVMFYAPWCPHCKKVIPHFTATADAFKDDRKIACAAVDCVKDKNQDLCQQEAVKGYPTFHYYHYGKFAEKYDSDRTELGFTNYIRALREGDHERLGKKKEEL
UniProt Q6P996: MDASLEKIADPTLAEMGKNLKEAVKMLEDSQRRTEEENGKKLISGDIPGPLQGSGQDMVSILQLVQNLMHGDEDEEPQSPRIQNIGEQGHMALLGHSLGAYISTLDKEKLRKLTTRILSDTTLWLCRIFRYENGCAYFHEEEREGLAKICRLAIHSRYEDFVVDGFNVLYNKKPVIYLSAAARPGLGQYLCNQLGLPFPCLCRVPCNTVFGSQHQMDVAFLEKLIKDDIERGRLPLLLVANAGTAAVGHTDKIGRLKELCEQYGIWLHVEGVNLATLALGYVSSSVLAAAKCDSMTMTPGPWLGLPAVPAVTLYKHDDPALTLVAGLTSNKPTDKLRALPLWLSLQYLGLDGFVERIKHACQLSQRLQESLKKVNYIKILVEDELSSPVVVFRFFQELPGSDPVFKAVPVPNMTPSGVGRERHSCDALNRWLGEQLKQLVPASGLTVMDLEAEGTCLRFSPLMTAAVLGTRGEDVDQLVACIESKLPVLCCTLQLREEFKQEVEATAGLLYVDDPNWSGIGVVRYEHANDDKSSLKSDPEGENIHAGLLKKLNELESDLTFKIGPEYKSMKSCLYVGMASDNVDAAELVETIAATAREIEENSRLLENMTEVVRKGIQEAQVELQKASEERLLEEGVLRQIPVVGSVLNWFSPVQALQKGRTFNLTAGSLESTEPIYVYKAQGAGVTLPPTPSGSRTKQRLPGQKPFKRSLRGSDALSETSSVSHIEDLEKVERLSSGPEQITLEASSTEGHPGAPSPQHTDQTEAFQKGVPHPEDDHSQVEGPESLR
UniProt Q92968: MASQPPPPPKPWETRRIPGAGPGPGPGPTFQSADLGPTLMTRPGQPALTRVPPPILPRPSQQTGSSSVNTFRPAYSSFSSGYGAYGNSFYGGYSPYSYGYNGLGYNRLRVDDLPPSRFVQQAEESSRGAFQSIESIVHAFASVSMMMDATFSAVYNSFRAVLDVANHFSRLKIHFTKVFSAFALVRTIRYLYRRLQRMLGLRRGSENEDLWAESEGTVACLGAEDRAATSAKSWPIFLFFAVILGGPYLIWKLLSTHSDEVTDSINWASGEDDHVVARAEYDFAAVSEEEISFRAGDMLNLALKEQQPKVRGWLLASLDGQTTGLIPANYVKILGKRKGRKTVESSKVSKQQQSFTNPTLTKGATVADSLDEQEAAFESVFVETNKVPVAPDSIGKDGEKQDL
UniProt Q13442: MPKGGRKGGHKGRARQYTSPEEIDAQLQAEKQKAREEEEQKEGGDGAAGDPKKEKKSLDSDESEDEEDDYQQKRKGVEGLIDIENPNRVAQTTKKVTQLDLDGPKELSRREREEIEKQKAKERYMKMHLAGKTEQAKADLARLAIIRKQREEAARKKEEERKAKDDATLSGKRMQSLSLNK
UniProt Q8N5Y8: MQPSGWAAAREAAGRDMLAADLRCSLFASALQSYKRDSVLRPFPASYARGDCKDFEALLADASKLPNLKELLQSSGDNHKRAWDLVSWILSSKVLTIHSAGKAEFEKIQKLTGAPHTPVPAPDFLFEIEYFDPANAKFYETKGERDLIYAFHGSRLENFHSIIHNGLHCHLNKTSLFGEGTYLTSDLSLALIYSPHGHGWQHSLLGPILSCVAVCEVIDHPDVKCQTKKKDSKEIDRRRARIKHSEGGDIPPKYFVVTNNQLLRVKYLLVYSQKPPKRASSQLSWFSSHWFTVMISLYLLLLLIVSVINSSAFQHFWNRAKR
UniProt O95613: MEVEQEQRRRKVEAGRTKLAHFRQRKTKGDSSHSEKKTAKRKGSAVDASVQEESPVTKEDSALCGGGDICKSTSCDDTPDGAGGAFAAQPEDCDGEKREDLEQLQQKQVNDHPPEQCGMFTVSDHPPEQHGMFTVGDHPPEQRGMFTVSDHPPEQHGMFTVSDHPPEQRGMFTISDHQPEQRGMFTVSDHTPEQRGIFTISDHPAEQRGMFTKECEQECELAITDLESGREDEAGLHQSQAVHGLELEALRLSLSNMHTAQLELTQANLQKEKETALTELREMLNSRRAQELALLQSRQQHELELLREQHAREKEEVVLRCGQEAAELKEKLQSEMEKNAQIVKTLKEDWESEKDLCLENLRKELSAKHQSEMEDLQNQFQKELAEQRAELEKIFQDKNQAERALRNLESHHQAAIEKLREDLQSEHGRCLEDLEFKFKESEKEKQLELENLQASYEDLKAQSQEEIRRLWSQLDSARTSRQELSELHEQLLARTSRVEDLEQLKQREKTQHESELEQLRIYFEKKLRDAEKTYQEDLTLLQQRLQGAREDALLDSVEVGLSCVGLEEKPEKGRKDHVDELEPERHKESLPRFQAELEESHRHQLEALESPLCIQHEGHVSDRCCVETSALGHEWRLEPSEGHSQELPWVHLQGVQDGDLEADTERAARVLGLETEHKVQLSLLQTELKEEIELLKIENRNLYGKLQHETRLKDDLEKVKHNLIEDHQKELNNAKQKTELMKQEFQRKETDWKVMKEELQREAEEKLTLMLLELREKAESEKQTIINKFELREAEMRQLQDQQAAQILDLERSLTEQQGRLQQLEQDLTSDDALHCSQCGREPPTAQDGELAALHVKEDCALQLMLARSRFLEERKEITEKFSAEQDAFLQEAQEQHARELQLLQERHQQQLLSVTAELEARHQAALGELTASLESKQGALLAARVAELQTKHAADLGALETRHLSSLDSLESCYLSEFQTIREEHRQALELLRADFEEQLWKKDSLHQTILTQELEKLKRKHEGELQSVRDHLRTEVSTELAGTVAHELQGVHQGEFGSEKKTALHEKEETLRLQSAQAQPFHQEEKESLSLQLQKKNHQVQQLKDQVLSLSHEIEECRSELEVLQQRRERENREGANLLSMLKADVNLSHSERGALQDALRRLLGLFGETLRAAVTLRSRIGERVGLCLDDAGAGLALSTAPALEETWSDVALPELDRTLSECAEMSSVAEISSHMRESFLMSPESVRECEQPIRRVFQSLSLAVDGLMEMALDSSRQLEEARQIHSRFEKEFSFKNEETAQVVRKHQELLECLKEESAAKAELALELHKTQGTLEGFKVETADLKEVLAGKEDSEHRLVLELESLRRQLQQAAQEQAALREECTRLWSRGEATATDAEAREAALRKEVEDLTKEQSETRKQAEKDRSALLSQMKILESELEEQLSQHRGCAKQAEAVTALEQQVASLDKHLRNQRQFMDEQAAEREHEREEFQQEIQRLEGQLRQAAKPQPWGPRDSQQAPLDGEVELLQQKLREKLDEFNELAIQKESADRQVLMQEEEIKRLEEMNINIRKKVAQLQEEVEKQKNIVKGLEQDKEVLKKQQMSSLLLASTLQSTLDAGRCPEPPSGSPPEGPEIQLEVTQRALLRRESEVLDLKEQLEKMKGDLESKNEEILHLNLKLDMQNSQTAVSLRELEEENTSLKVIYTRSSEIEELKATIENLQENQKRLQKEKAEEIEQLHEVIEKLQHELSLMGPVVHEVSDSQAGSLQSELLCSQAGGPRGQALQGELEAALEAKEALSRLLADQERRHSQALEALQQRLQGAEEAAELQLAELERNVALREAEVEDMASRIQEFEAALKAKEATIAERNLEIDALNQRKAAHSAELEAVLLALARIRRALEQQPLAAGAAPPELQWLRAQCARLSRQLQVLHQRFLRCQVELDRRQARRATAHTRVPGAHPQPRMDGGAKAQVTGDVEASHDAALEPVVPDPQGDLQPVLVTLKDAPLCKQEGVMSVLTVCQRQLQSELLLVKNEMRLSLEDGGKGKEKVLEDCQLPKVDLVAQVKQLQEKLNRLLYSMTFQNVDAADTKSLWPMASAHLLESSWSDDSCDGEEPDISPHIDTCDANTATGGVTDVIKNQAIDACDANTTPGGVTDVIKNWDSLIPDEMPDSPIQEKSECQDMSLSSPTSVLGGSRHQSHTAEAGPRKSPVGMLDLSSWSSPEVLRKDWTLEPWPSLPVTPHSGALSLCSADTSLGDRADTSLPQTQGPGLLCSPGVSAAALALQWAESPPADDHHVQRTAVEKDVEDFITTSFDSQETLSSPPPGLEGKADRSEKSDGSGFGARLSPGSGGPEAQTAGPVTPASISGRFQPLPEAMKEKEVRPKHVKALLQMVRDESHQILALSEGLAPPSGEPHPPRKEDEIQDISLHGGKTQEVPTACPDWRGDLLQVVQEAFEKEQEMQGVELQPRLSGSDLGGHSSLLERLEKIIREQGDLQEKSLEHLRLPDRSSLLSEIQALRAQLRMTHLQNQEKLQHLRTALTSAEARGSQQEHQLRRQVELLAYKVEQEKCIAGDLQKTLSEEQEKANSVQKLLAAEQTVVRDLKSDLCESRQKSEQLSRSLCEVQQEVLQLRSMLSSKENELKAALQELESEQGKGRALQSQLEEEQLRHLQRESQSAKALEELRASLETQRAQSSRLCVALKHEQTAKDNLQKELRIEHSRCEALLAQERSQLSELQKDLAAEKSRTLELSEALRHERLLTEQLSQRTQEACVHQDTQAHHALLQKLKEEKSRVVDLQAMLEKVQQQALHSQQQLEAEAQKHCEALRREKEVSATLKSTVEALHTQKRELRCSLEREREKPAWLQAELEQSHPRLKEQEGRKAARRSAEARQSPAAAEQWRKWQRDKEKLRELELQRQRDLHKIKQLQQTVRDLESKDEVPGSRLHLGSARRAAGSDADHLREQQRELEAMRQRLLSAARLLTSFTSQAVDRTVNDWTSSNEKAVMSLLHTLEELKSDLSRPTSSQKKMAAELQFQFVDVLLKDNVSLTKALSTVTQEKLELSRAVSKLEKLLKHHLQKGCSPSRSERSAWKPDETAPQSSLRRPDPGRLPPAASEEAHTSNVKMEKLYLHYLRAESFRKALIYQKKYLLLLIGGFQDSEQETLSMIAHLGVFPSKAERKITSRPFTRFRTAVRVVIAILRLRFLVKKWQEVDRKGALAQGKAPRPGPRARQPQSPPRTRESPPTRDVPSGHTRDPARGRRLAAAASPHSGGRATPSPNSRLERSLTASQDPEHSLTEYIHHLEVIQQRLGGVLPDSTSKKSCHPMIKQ

Key:
Assay in all cases: log2 fold change, soluble protein after heating vs DMSO (PISA); higher = thermal stabilisation; K562 cells, 10 uM, 30 min; active = over 0.2 and 3.5 SD of the protein, either way, in both replicates (recomputed)
saracatinib = compound: CN1CCN(CCOc2cc(OC3CCOCC3)c3c(Nc4c(Cl)ccc5c4OCO5)ncnc3c2)CC1 [saracatinib]
Summary of the method: (§1)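 K562 cells at 2×10^6 cells/mL were exposed to 10 μM compound for 30 min, then aliquots were heated for 3 min across 48°C-58°C, pooled, and extracted in PBS containing 0.5% NP-40 at 4°C. The supernatant after 21,000xg for 90 min was taken as soluble protein and measured by TMTpro 16plex LC-MS/MS with channel sums equalised. Thermal stability is reported relative to control samples, with values from duplicates. Fold changes are given on a log2 scale.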

sotrastaurin = compound: CN1CCN(c2nc(C3=C(c4c[nH]c5ccccc45)C(=O)NC3=O)c3ccccc3n2)CC1 [sotrastaurin]
Summary of the method: as §1

alvocidib = compound: CN1CC[C@H](c2c(O)cc(O)c3c(=O)cc(-c4ccccc4Cl)oc23)[C@H](O)C1 [alvocidib]
Summary of the method: as §1

Tubastatin A = compound: CN1CCc2c(c3ccccc3n2Cc2ccc(C(=O)NO)cc2)C1 [Tubastatin A]
Summary of the method: as §1

[1] = compound: CNC(=O)C1=CC=CC=C1NC2=NC(=NC=C2Cl)NC3=C(C=C(C=C3)N4CCOCC4)OC
Summary of the method: as §1

defactinib = compound: CNC(=O)c1ccc(Nc2ncc(C(F)(F)F)c(NCc3nccnc3N(C)S(C)(=O)=O)n2)cc1 [defactinib]
Summary of the method: as §1

rucaparib = compound: CNCc1ccc(-c2[nH]c3cc(F)cc4c3c2CCNC4=O)cc1 [rucaparib]
Summary of the method: as §1

[2] = compound: CNc1nc(-c2ccc3c(N)n[nH]c3c2)cc(N2C[C@@H](C(=O)NC3CCCCC3)CC[C@H]2C)n1
Summary of the method: as §1

encorafenib = compound: COC(=O)N[C@@H](C)CNc1nccc(-c2cn(C(C)C)nc2-c2cc(Cl)cc(NS(C)(=O)=O)c2F)n1 [encorafenib]
Summary of the method: as §1

[3] = compound: COC(=O)[C@H](CCSC)NC(=O)C1=C(C=C(C=C1)NC[C@H](CS)N)C2=CC=CC=C2
Summary of the method: as §1

[4] = compound: COC1=CC=C(C=C1)CN2C=CC3=C2C=C(C=C3)C(=O)NO
Summary of the method: as §1

filanesib = compound: CON(C)C(=O)N1N=C(c2cc(F)ccc2F)S[C@@]1(CCCN)c1ccccc1 [filanesib]
Summary of the method: as §1

zotarolimus = compound: CO[C@H]1C[C@@H]2CC[C@@H](C)[C@@](O)(O2)C(=O)C(=O)N2CCCC[C@H]2C(=O)O[C@H]([C@H](C)C[C@@H]2CC[C@H](n3cnnn3)[C@H](OC)C2)CC(=O)[C@H](C)/C=C(\C)[C@@H](O)[C@@H](OC)C(=O)[C@H](C)C[C@H](C)/C=C/C=C/C=C/1C [zotarolimus]
Summary of the method: as §1

idasanutlin = compound: COc1cc(C(=O)O)ccc1NC(=O)[C@@H]1N[C@@H](CC(C)(C)C)[C@](C#N)(c2ccc(Cl)cc2F)[C@H]1c1cccc(Cl)c1F [idasanutlin]
Summary of the method: as §1

alisertib = compound: COc1cc(Nc2ncc3c(n2)-c2ccc(Cl)cc2C(c2c(F)cccc2OC)=NC3)ccc1C(=O)O [alisertib]
Summary of the method: as §1

[5] = compound: COc1cc2nc(-c3cc(F)ccc3O)nc(N[C@@H]3CNC[C@H]3C(C)(C)O)c2cc1OC
Summary of the method: as §1

gefitinib = compound: COc1cc2ncnc(Nc3ccc(F)c(Cl)c3)c2cc1OCCCN1CCOCC1 [gefitinib]
Summary of the method: as §1

[6] = compound: COc1cccc2cc(-c3nc([C@H]4CC[C@H](C(=O)O)CC4)n4ncnc(N)c34)[nH]c12
Summary of the method: as §1

lapatinib = compound: CS(=O)(=O)CCNCc1ccc(-c2ccc3ncnc(Nc4ccc(OCc5cccc(F)c5)c(Cl)c4)c3c2)o1 [lapatinib]
Summary of the method: as §1

pictilisib = compound: CS(=O)(=O)N1CCN(Cc2cc3nc(-c4cccc5[nH]ncc45)nc(N4CCOCC4)c3s2)CC1 [pictilisib]
Summary of the method: as §1

Measured: log2 fold change

PCMT1 isoform 2 (UniProt P22061)
inactive: saracatinib -0.002 | sotrastaurin -0.026 | alvocidib -0.046 | Tubastatin A -0.027 | [1] 0.026 | defactinib -0.026 | rucaparib 0.011 | [2] 0.025 | encorafenib -0.027 | [3] -0.009 | [4] -0.085 | filanesib -0.081 | zotarolimus 0.03 | idasanutlin -0.066 | alisertib -0.029 | [5] 0.034 | gefitinib 0.02 | [6] 0.036 | lapatinib -0.045 | pictilisib 0.063

PDIA5 (UniProt Q14554)
inactive: saracatinib -0.04 | sotrastaurin -0.029 | alvocidib 0.039 | Tubastatin A 0.022 | [1] -0.016 | defactinib 0.056 | rucaparib 0.03 | [2] 0.008 | encorafenib 0.072 | [3] -0.019 | [4] 0.054 | filanesib 0.078 | zotarolimus 0.011 | idasanutlin 0.044 | alisertib -0.161 | [5] -0.01 | gefitinib -0.002 | [6] -0.076 | lapatinib 0.064 | pictilisib -0.007

PDXDC1 (UniProt Q6P996)
inactive: saracatinib -0.134 | sotrastaurin -0.121 | alvocidib -0.188 | Tubastatin A -0.046 | [1] 0.043 | defactinib 0.194 | rucaparib 0.501 | [2] 0.072 | encorafenib 0.326 | [3] -0.049 | [4] -0.033 | filanesib 0.317 | zotarolimus 0.116 | idasanutlin 0.01 | alisertib -0.067 | [5] -0.068 | gefitinib 0.012 | [6] -0.028 | lapatinib 0.249 | pictilisib 0.157

PEX13 (UniProt Q92968)
active: [5] -0.318
inactive: saracatinib -0.067 | sotrastaurin -0.083 | Tubastatin A 0.061 | [1] -0.061 | defactinib -0.011 | rucaparib -0.058 | [2] 0.008 | encorafenib 0.047 | [3] -0.087 | [4] 0.028 | filanesib -0.072 | zotarolimus -0.129 | idasanutlin -0.019 | alisertib -0.037 | gefitinib -0.045 | [6] 0.115 | lapatinib -0.013 | pictilisib 0.009

Fetched one by one from the list above (2):
PDXDC1 (UniProt Q6P996)
inactive: saracatinib -0.134 | sotrastaurin -0.121 | alvocidib -0.188 | Tubastatin A -0.046 | [1] 0.043 | defactinib 0.194 | rucaparib 0.501 | [2] 0.072 | encorafenib 0.326 | [3] -0.049 | [4] -0.033 | filanesib 0.317 | zotarolimus 0.116 | idasanutlin 0.01 | alisertib -0.067 | [5] -0.068 | gefitinib 0.012 | [6] -0.028 | lapatinib 0.249 | pictilisib 0.157

PEX13 (UniProt Q92968)
active: [5] -0.318
inactive: saracatinib -0.067 | sotrastaurin -0.083 | Tubastatin A 0.061 | [1] -0.061 | defactinib -0.011 | rucaparib -0.058 | [2] 0.008 | encorafenib 0.047 | [3] -0.087 | [4] 0.028 | filanesib -0.072 | zotarolimus -0.129 | idasanutlin -0.019 | alisertib -0.037 | gefitinib -0.045 | [6] 0.115 | lapatinib -0.013 | pictilisib 0.009

The results go on:

PECAM1 (UniProt P16284)
inactive: saracatinib 0.062 | sotrastaurin 0.062 | Tubastatin A 0.096 | [1] -0.076 | defactinib 0 | rucaparib 0 | [2] 0.003 | encorafenib -0.092 | [3] -0.007 | [4] 0.018 | filanesib 0.114 | zotarolimus -0.002 | idasanutlin -0.029 | alisertib -0.053 | [5] 0.025 | gefitinib 0.02 | [6] 0.063 | lapatinib -0.021 | pictilisib 0.12

PDAP1 (UniProt Q13442)
inactive: saracatinib 0.055 | sotrastaurin 0.052 | alvocidib 0.037 | Tubastatin A -0.031 | [1] -0.028 | defactinib -0.011 | rucaparib -0.038 | [2] 0.015 | encorafenib 0.002 | [3] 0.032 | [4] 0.018 | filanesib -0.045 | zotarolimus -0.025 | idasanutlin 0.01 | alisertib -0.078 | [5] 0.002 | gefitinib 0.005 | [6] 0.031 | lapatinib 0.017 | pictilisib 0

PARP16 isoform 3 (UniProt Q8N5Y8)
inactive: saracatinib 0.175 | sotrastaurin -0.038 | Tubastatin A 0.005 | [1] -0.009 | defactinib 0.046 | rucaparib 0.198 | [2] -0.042 | encorafenib -0.087 | [3] -0.005 | [4] -0.029 | filanesib -0.13 | zotarolimus 0.039 | idasanutlin -0.056 | alisertib -0.075 | [5] -0.097 | gefitinib 0.011 | [6] -0.03 | lapatinib 0.071 | pictilisib -0.008

PCNT (UniProt O95613)
inactive: saracatinib -0.06 | sotrastaurin 0.115 | Tubastatin A -0.069 | [1] -0.098 | defactinib 0.154 | rucaparib -0.116 | [2] 0.019 | encorafenib 0.037 | [3] 0.091 | [4] -0.228 | filanesib 0.006 | zotarolimus -0.001 | idasanutlin 0.075 | alisertib 0.02 | [5] 0.055 | gefitinib 0.085 | [6] 0.257 | lapatinib -0.174 | pictilisib 0.285
